Assay [1] has as its target Pediococcus acidilactici lactate oxidase (Pediococcus acidilactici) (UniProt E0NE46). Description: condition: only after chemical removal of FMN (deflavination); SEC; native tetramer deflavinated (250 mM sodium phosphate pH 7.5, 3 M KBr, 10% glycerol, 0.5 mM TCEP, 1 mM EDTA, on ice 4 days, repeated), then SEC in size exclusion buffer; both purified.
For assay [2] the target is unchanged. The assay can be described thus: SAXS; SAXS in size-exclusion chromatography mode, monomeric (FMN-free) fraction; SAXS MoW 2.0; both purified. In general terms: In gel filtration, larger molecules generally elute earlier.
Assay [3] has the same target. The assay can be described thus: SEC; analytical SEC of the colourless, FMN-free fraction; Superdex 200 Increase 10/300 calibrated with Bio-Rad standards; 30 mM Hepes pH 7.5, 350 mM NaCl, 0.5 mM TCEP; both purified.

Results are given in words; binding and its absence hold for the method and conditions named.

B1: Pediococcus acidilactici lactate oxidase (enzyme)
chain: MTMINGYEQSDREEKIDILNLESLEKQAEEIIPAGGFGYIAGGSEDEWTLKQNRMAFHHRQIAPKALSGIEKPELNTEIFGIPLNTPVMMAPAAAQGLAHSQGEKDTARGLAAVGGLMAQSTYSSVSIAETAAAGGDAPQFFQLYMSKDWNFNESLLDEAKKANVKAIILTVDATVDGYREADIKNKFTFPLPMANLIKFSEGNGQGKGIEEIYASAAQNIRPEDVKRIADYTNLPVIVKGIQTPEDAIRAIDAGAAGIYVSNHGGRQLNGGPASFDVLEDIATAVNKQVPIIFDSGVRRGSDVFKALASGADLVALGRPVIYGLALGGAKGVQSVFEHLNHELEIVMQLAGTKTIEDVKNNSLLNIKY
notes: putative L-lactate oxidase of Pediococcus acidilactici DSM 20284, Uniprot E0NE46; gene cloned from genomic DNA into pNH-TrxT; theoretical monomer mass 39 kDa; The same polypeptide without FMN (colourless fraction, or deflavinated) is a monomer that lacks secondary structure by CD; also called PaLCTO; WT PaLCTO; source: E. coli BL21 (DE3), purified (Ni-NTA, TEV cleavage, second Ni-NTA, SEC); not …
Turning to B1, the binding result is on record as “no binding” in assay [1], “no binding (condition: without FMN (monomeric fraction))” in assay [2] and “no binding (condition: without FMN (colourless fraction))” in assay [3].

The record behind these values is paper PMC7039449, “FMN-dependent oligomerization of putative lactate oxidase from Pediococcus acidilactici” (PLoS ONE, 2020).
